From the supplement of paper PMC12889115
The other results are listed elsewhere or left out. Values are raw readings; no control value is given beside them.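 In the initial screen, polymyxin B was used at a concentration that permeabilizes Salmonella's outer membrane but not its inner membrane. Maximum growth was set by DMSO wells with or without polymyxin B. Since plates varied, data were ranked per plate, and compounds giving the lowest OD600 advanced as hits.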

System: Salmonella enterica serovar Typhimurium SL1344
Assay: bacterial growth OD600 after 18 h with compound and polymyxin B; higher = more bacterial growth (less inhibition)
Conditions: 50 µM, Mueller-Hinton broth

SMILES | bacterial growth OD600 (polymyxin B 0.75 µg/mL) | bacterial growth OD600 (polymyxin B 1 µg/mL)
CN(C)CC(C)(C)CNC(=O)c1cc(Cn2cnc3ccccc32)[nH]n1 | 0.795 | 
O=C(NC1(c2ccccc2)CC1)C1CCC(=O)N(CCCN2CCOCC2)C1 (configuration not stated) |  | 0.838
Cc1cc(C(=O)N2CCCC(Nc3ccc4c(c3)OCCO4)C2)nn1C (configuration not stated) |  | 0.944
C/C=C(\C)CN1CCC(O)(Cc2cc(-c3ccccc3)no2)CC1 |  | 0.702
COc1ccc2ccc(OCc3nc(C(=O)N4CCC(C)CC4)co3)cc2c1 |  | 0.61
O=C(CSc1ncccn1)NCC1Cc2cc(-c3ccsc3)cc(Cl)c2O1 (configuration not stated) | 0.01 | 
Cc1c(C(C)NCc2cccc3cnccc23)cnn1-c1ccc(F)cc1F (configuration not stated) | 0.751 | 
CN(C)c1ccc(C(=O)N2CCC(Cn3cccn3)CC2)cn1 | 0.82 | 
Cc1cc(-c2nnc(CCC(=O)NCC(C)c3ccccc3)o2)no1 (configuration not stated) |  | 0.829
CN(C(=O)C1CC1)C(Cc1ccc(F)cc1F)C1CCN(C(=O)C2CC(=O)c3ccccc32)CC1 (configuration not stated) | 0.841 | 
O=C(CCn1cnnn1)N1CCCC(CCc2ccccc2F)C1 (configuration not stated) | 0.773 | 
COCCN1C(=O)NC(Cc2ccccc2Cl)(C2CCN(C(=O)c3cc(C)ccc3C)CC2)C1=O (configuration not stated) | 0.852 | 
COc1cccc(CCc2nnc(CCC(=O)NCCC(C)C)o2)c1 | 0.785 | 
COc1ccc(C(=O)C2CCCN(C(=O)c3ccc4oc(C)cc4c3)C2)c(C)c1 (configuration not stated) |  | 0.522
Cc1cc(Cl)c2oc(C(=O)N(CCO)Cc3ccccc3)c(C)c2c1 |  | 0.001
CCc1noc(C)c1C(=O)N1CCC2(CCCN(CC(C)(C)C)C2=O)C1 (configuration not stated) |  | 0.901

SMILES | bacterial growth OD600 (polymyxin B 0.75 µg/mL) | bacterial growth OD600 (polymyxin B 1 µg/mL)
CCOC(=O)C1(Cc2ccc(F)cc2F)CCCN(C(=O)Cc2cccnc2)C1 (configuration not stated) |  | 0.693
COCCNC(=O)c1ccc(OC)cc1OC1CCN(C/C=C/C(C)C)CC1 |  | 1.04
CCN1CCCC(CN(C)c2nc3nonc3nc2NCCCOC)C1 (configuration not stated) | 0.81 | 
CCN1CCc2onc(C(c3ccccc3)c3ccccc3)c2C1 | 0.306 | 
CCS(=O)(=O)N1CCC2(CCCN(Cc3cccc(F)c3F)C2=O)C1 (configuration not stated) |  | 0.889
COCCO[C@H]1[C@H](NC(=O)C(C)C)c2ccccc2C12CCN(C(=O)CCc1cccs1)CC2 | 0.846 | 
COc1ccc(NC(=O)CCC2CCCN(C(=O)CCC(=O)c3ccccc3)C2)c(C)c1 (configuration not stated) |  | 1.21
Cc1nnc(C(C)NC(=O)C2(N(C)CCc3ccccc3)Cc3ccccc3C2)[nH]1 (configuration not stated) |  | 0.787
CCC1CN(Cc2ccc(OC)cc2)Cc2cc(OC)ccc2O1 (configuration not stated) | 0.786 | 
CCOC(=O)C1(Cc2ccccc2C(F)(F)F)CCN(C2CCSC2)CC1 (configuration not stated) |  | 0.449
COCCC(=O)N1CCC(Oc2ccc(C(=O)NC3CCc4ccccc43)cc2)CC1 (configuration not stated) |  | 0.709
COc1ccccc1CCCNC(=O)C1CCC(=O)N(CCc2ccccn2)C1 (configuration not stated) |  | 0.89
COc1ccc(CN(Cc2ccncc2)C(=O)c2sccc2C)cc1OCc1ccccc1F | 0.002 | 
COc1cccc(CN2C(=O)NC(C)(C3CCN(C(=O)c4occc4C)CC3)C2=O)c1OC (configuration not stated) | 0.804 | 
COCc1noc(-c2ccc(N3CCCCC3c3nccs3)nc2)n1 (configuration not stated) |  | 0.989
COCCC(=O)N(C)CC1CCCN(CCc2ccccc2OC)C1 (configuration not stated) |  | 0.933

Laid out differently: results already given.
CN(C(=O)C1CC1)C(Cc1ccc(F)cc1F)C1CCN(C(=O)C2CC(=O)c3ccccc32)CC1 (configuration not stated)
  bacterial growth OD600 (polymyxin B 0.75 µg/mL): 0.841
COCCC(=O)N1CCC(Oc2ccc(C(=O)NC3CCc4ccccc43)cc2)CC1 (configuration not stated)
  bacterial growth OD600 (polymyxin B 1 µg/mL): 0.709
